Laboratory results: PubChem BioAssay AID602196 (INSERM, 2012)

Test: 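Genes whose knock-down alters cisplatin killing of lung cancer cells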
Cell system: human A549 lung cancer cells
Reagent: siRNA pair against human genes
Timing: 48 h transfection before cisplatin; time from cisplatin to read-out not stated
Challenge: cisplatin at a dose killing half of control-siRNA cells; exact dose and duration not given
Measured: 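Cisplatin cell death as a shift from the 50% death seen with control siRNA; siRNAs toxic or growth-blocking alone scored 0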
Reading the numbers: two-siRNA summed score (-2 to +2): higher = both siRNAs protect from cisplatin killing; -2 means both sensitise
Active means: 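Each siRNA scores 0 if harmful alone by LDH or WST-1, otherwise +1 if it reduces and -1 if it increases cisplatin killing; a gene is active when both siRNAs agree (sum +2 or -2)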
Calls: active = both siRNAs shift cisplatin killing the same way; inactive = no consistent shift, or siRNA harmful alone
This is one part, drawn at random, of about 23,000 reagents. Over the whole deposit, 455 (2%) were called active. 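Active includes both protection and sensitisation; some change values fall well beyond the stated -50 to +50 range.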 A number with no mark means an inactive call. Further read-outs or replicates are left out here. The record does not give: the amount of reagent.

FOXC2 → two-siRNA summed score (-2 to +2) = 0
H2AC15 → two-siRNA summed score (-2 to +2) = 1
PRG3 → two-siRNA summed score (-2 to +2) = 0
PGBDF → two-siRNA summed score (-2 to +2) = 0
TMEM72 → two-siRNA summed score (-2 to +2) = 0
DHDDS → two-siRNA summed score (-2 to +2) = 1
MDH1B → two-siRNA summed score (-2 to +2) = 0
PXK → two-siRNA summed score (-2 to +2) = 1
DHRS1 → two-siRNA summed score (-2 to +2) = 0
LOC387648 → two-siRNA summed score (-2 to +2) = -1
EDRF1 → two-siRNA summed score (-2 to +2) = 0
LOC441837 → two-siRNA summed score (-2 to +2) = 0
ZNF500 → two-siRNA summed score (-2 to +2) = 0
CEP120 → two-siRNA summed score (-2 to +2) = 0

Already shown: 2 of the entries above.
H2AC15 → two-siRNA summed score (-2 to +2) = 1
PRG3 → two-siRNA summed score (-2 to +2) = 0

The list goes on.
ST3GAL1 → two-siRNA summed score (-2 to +2) = 0
LOC442175 → two-siRNA summed score (-2 to +2) = 2 (active)
KRTAP19-3 → two-siRNA summed score (-2 to +2) = 1
IL6ST → two-siRNA summed score (-2 to +2) = 0
ORC4 → two-siRNA summed score (-2 to +2) = 0
CFAP20DC → two-siRNA summed score (-2 to +2) = 0
LOC441888 → two-siRNA summed score (-2 to +2) = 0
LOC441179 → two-siRNA summed score (-2 to +2) = 1
PPP2R2A → two-siRNA summed score (-2 to +2) = -1
LOC392557 → two-siRNA summed score (-2 to +2) = 1
GPC2 → two-siRNA summed score (-2 to +2) = -1
RAB1C → two-siRNA summed score (-2 to +2) = 0
LOC392089 → two-siRNA summed score (-2 to +2) = 0
P2RY2 → two-siRNA summed score (-2 to +2) = 0
HOGA1 → two-siRNA summed score (-2 to +2) = 0
ATP6V0B → two-siRNA summed score (-2 to +2) = -1
VN1R5 → two-siRNA summed score (-2 to +2) = 0
